Results are given in words; binding and its absence hold for the method and conditions named. Binding seen in cells or lysates may run through a third protein. Some results given as binding are weak or reduced against the parent protein; the word gives no strength. For part of these data: Sequences can lack the tags named with a protein.
What was measured:
[1] = biological target: T1, Flag-CNTNAP2-ecto (ectodomain of CNTNAP2) (human) (UniProt Q9UHC6); assay: pull-down
T1 sequence: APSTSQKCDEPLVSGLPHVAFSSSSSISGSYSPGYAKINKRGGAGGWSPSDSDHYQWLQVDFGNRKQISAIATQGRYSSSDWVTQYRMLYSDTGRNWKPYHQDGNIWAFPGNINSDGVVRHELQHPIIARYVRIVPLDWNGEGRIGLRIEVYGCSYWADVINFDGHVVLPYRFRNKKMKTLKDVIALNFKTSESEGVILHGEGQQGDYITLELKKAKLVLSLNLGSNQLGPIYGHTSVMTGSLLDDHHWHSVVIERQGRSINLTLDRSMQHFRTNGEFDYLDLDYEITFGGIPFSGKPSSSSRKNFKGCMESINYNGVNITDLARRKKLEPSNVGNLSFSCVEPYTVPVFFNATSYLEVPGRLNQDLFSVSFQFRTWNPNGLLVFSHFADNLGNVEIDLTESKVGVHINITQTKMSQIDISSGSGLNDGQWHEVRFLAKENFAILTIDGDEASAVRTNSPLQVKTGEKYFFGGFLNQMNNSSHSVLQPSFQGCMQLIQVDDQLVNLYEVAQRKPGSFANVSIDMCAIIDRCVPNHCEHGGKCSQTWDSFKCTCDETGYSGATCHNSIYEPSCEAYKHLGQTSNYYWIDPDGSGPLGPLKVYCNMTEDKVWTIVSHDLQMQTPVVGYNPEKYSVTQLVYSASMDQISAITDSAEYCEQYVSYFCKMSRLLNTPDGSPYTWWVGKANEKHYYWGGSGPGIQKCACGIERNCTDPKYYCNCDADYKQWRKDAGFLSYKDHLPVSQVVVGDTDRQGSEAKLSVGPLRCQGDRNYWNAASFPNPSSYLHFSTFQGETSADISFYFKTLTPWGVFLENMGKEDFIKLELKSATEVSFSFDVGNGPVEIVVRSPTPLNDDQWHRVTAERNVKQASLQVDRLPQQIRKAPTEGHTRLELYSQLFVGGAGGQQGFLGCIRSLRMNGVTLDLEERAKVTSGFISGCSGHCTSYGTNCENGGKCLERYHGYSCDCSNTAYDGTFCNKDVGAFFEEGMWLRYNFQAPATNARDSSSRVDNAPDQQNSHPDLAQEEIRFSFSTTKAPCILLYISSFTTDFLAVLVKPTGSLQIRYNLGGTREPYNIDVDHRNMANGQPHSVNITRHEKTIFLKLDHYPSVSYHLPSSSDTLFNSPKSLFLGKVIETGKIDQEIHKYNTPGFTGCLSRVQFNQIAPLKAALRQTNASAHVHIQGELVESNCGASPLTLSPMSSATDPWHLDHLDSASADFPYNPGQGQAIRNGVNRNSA

Protein sequences, listed by entry. Tags and fused reporters are not part of them.
UniProt Q01814: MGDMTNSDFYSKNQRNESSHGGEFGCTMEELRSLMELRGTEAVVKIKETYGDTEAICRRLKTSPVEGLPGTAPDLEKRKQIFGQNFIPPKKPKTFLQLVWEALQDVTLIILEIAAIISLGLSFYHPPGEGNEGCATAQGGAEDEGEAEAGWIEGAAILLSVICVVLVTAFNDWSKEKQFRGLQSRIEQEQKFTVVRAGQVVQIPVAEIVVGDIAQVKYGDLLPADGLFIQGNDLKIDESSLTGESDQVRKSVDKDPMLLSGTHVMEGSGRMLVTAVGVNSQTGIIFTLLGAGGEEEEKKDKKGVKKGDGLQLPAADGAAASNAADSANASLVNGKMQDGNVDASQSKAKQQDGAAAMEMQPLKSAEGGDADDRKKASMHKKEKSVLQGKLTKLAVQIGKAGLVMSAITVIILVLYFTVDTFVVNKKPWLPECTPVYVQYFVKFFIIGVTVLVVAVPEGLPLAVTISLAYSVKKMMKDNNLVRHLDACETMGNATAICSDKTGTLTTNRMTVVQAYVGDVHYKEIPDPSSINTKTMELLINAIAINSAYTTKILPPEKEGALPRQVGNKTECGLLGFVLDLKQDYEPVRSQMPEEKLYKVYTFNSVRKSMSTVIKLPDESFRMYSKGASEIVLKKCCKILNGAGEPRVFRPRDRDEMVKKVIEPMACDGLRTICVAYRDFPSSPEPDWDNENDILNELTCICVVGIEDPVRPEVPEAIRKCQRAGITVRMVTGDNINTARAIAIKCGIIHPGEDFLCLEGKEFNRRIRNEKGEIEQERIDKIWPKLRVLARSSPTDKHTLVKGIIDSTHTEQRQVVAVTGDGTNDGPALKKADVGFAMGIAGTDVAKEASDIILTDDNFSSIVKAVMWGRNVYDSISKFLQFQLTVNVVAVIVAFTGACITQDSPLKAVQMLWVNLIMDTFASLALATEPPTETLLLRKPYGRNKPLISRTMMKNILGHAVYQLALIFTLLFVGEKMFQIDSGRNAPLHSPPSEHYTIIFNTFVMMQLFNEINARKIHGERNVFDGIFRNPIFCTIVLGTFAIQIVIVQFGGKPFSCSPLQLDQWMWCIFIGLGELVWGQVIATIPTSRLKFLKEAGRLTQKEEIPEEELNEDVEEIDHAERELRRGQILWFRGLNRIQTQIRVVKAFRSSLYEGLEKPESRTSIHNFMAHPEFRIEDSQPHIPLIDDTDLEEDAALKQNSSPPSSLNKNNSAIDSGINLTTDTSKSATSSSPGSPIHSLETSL
UniProt Q9R0K7: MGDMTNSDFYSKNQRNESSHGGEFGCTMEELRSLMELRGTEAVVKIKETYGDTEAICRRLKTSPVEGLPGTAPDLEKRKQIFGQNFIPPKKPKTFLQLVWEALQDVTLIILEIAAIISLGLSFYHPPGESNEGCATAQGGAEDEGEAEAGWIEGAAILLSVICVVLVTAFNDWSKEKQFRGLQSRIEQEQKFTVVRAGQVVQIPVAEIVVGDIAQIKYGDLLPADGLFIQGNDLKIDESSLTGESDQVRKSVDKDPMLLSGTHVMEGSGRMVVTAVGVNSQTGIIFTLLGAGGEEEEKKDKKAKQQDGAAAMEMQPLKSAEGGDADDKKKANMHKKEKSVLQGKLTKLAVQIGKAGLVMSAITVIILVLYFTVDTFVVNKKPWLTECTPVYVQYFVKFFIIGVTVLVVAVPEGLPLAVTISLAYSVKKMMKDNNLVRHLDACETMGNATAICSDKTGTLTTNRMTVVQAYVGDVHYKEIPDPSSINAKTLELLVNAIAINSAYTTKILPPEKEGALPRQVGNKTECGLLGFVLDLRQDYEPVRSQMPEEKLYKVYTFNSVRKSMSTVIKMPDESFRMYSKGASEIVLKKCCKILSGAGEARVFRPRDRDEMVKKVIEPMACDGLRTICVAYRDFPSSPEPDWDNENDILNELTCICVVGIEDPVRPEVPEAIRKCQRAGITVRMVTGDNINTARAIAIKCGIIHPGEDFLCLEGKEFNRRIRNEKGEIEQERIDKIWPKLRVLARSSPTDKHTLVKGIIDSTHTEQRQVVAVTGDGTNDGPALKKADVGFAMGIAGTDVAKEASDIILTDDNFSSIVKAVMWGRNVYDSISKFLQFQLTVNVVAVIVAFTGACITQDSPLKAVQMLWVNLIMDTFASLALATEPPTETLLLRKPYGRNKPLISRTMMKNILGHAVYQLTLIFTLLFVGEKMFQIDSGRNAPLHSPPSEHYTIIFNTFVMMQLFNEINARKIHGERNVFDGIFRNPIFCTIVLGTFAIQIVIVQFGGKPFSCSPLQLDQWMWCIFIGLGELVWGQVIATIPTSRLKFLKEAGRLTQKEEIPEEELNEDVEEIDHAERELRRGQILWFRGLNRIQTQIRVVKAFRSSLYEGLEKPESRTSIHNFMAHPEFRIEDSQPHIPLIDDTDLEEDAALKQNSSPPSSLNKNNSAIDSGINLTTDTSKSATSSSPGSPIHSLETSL

[2] = biological target: T2, 1253* CNTNAP2-ecto (human) (UniProt Q9UHC6); assay: pull-down
T2 sequence: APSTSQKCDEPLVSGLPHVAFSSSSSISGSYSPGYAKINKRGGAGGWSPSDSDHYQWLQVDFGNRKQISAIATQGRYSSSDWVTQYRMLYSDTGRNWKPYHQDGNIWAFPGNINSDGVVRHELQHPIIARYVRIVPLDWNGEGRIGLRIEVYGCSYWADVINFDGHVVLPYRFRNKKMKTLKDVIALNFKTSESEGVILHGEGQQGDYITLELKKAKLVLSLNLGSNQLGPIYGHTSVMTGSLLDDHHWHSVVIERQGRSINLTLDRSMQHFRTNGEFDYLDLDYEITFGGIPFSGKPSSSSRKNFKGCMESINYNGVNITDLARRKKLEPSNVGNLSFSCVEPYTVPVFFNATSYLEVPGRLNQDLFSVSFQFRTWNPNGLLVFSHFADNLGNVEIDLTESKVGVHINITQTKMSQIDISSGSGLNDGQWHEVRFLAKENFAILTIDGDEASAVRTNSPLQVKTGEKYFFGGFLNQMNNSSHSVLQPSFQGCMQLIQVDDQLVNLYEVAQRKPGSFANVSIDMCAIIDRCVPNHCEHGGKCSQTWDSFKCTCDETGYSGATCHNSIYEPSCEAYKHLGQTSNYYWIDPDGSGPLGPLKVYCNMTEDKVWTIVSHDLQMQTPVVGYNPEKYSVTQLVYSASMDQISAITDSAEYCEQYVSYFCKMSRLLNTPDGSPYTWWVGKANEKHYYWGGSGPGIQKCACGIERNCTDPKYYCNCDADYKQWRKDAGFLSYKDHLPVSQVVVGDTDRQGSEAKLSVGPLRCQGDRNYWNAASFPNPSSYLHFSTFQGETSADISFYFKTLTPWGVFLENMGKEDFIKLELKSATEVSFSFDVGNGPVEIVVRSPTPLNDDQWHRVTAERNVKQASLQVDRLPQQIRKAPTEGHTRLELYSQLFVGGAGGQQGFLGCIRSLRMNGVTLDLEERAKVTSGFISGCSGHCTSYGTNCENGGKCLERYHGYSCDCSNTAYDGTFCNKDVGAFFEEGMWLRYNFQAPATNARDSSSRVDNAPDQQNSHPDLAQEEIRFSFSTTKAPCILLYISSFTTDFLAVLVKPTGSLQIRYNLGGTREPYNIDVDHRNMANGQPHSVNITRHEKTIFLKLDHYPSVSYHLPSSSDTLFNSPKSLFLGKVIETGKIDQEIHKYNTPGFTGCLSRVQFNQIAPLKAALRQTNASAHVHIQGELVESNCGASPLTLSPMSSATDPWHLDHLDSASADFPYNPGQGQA

| binding [1] | binding [2] | Substance |
| --- | --- | --- |
| binds | binds | PMCA2w/b (from UniProt Q01814 1-1243) |
| binds |  | PMCA2 (mouse cortical membranes) (from UniProt Q9R0K7 1-1198) |
